For the assay, the target named is Human recombinant GP antigen (rGP) produced in 293 cells (human) (UniProt Q01955). Description: filter overlay.

Sequences of proteins named here, by UniProt entry; tags and fusion partners are left off. A change or cut given only in a name is not applied to a line headed by its entry. A line that says so, or that is headed by a name, gives the form on record, which may keep a tag or linker.
Human recombinant GP antigen (rGP) produced in 293 cells (Q01955, form named): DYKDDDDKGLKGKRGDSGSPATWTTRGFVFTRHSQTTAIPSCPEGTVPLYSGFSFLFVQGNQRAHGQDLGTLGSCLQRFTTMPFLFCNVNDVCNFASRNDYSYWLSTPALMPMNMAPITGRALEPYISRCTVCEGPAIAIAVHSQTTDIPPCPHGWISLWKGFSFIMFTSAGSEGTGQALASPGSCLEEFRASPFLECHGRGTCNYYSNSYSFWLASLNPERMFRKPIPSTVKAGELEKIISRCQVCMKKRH

These are yes or no findings as the source states them, for the method shown. Some results given as binding are weak or reduced against the parent protein; the word gives no strength. Tags and fused reporters may be left off the sequences shown.

B1: HeLa1 beta-galactosidase-derived fusion protein containing the N-terminal 150 residues of GPBP (protein, not shown: large carriers)
chain: MSDNQSWNSSGSEEDPETESGPPVERCGVLSKWTNYIHGWQDRWVVLKNNALSYYKSEDETEYGCRGSICLSKAVITPHDFDECRFDISVNDSVWYLRAQDPDHRQQWIDAIEQHKTESGYGSESSLRRHGSMVSLVSGASGYSATSTSS
For B1, the binding result was “binds”.
